According to paper PMC7862700:
The list shows a part of the results, in another mix than the full data. For part of these data: At the low end of the ranking the order means little. The list shows a part of the results. For part of these data: Construct or isoform of the protein are uncertain.

Chains of the proteins cited; added tags and fusions are not shown. Lines headed by an entry give the natural chain unless they say otherwise; changes in a name come on top.
UniProt Q00613: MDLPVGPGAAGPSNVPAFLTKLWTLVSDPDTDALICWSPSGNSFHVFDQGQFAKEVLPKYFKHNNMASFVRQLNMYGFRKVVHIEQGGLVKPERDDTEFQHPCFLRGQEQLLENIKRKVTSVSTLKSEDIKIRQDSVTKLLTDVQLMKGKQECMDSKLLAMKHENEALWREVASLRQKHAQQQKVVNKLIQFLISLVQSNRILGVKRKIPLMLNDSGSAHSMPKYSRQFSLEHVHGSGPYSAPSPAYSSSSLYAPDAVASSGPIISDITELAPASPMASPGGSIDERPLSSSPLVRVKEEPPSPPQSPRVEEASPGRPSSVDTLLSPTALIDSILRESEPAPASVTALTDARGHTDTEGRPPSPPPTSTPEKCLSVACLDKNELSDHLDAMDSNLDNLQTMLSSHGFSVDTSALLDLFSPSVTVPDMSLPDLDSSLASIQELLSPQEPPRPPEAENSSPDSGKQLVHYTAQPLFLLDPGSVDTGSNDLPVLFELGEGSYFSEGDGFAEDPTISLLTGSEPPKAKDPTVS

What was measured:
HSF1 = HSF1 (UniProt Q00613); test: DAPPL (digital affinity profiling via proximity ligation, sequencing); details: 10 mM Tris-HCl pH 7.5, 50 mM NaCl, 1 mM DTT, 4% glycerol, room temperature, 30 min; GST-TFs on glutathione beads, 16-mer random dsDNA library, 0.1% …; high values mean tight binding; double strand, one strand shown; scale: fold enrichment (6-mer frequency, TF over GST control)
ELF2 = biological target: T1, ELF2 (UniProt Q15723); test: as above; details: 10 mM Tris-HCl pH 7.5, 50 mM NaCl, 1 mM DTT, 4% glycerol, room temperature, 30 min; GST-TFs on glutathione beads, 16-mer random dsDNA library, 0.1% …; high values mean tight binding; double strand, one strand shown; scale: fold enrichment (6-mer frequency, TF over GST control)
T1 sequence: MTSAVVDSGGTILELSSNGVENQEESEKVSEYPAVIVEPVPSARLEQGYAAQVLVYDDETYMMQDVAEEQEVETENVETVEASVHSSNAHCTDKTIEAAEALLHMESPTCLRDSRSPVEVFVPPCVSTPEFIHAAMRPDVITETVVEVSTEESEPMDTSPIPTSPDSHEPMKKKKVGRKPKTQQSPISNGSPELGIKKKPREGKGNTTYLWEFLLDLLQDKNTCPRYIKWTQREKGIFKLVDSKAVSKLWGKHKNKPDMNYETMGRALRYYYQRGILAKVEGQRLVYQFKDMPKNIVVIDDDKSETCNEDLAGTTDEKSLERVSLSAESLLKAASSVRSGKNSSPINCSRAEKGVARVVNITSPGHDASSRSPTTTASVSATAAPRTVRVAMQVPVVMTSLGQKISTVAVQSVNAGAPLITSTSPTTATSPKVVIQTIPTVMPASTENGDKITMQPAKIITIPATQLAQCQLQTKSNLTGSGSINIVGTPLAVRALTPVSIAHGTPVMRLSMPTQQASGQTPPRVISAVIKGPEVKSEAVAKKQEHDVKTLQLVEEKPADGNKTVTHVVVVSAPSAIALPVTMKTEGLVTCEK

Sequence | binding signal (HSF1) | binding signal (ELF2)
AGTGGC | 0.964 | 1.23
CATGGG | 0.857 | 0.965
TTCCGA | 1.35 | 1.78
CTACAT | 1.17 | 1.37
CAAACG | 0.857 | 0.94
AACACG | 1.02 | 1.25
GTGATG | 0.723 | 0.891
GTCCAT | 0.871 | 1.09
ACTCCG | 1.16 | 1.42
AACTTT | 1.68 | 1.23
TTTAGA | 1.37 | 0.96
ACAATT | 1.18 | 1.3
TCTATT | 1.43 | 1.23
GCTCTT | 1.34 | 1.54
GCGATT | 1.23 | 0.933
TGGGAC | 0.761 | 0.872
CCACGT | 0.817 | 0.942
ACACTC | 0.993 | 1.04
TTTTCC | 1.73 | 2.08
TGCTCC | 1.27 | 1.24
TGCACC | 0.892 | 1.17
TAGGGT | 1.06 | 1.06
CGCCTA | 1.15 | 1.16
TTCACA | 1.04 | 1.14

Sequence | binding signal (HSF1) | binding signal (ELF2)
ACCACG | 0.919 | 1.04
CCCCTG | 0.954 | 1.17
TGTACG | 1.01 | 1.12
AGCGGC | 0.798 | 0.949
TCTCAT | 1.29 | 1.2
TGACTG | 0.943 | 0.984
GCGCCG | 0.827 | 0.919
TGGCCG | 0.884 | 1.01
TGTAAC | 0.994 | 1.22
TACGGC | 1.02 | 1.13
GATCAC | 0.951 | 0.918
TACGGG | 0.948 | 0.903
GTTGTA | 0.853 | 0.965
CTGCGG | 0.954 | 1.15
TGGCTG | 0.863 | 0.994
TTCGGT | 1.22 | 1.08
TTGTAT | 1.21 | 1.26
GAATGC | 0.985 | 0.94
CTGATG | 1.33 | 1.54
TTTTAT | 1.46 | 1.32
TGGCGC | 0.685 | 0.89
CCCCCC | 0.897 | 1.03
GTTAGC | 0.824 | 0.958
ACCCCC | 0.88 | 1.13

Sequence | binding signal (HSF1) | binding signal (ELF2)
TCAGTT | 0.844 | 1.06
AAATCG | 1.18 | 1
TGCCCA | 0.979 | 1.11
ACCACA | 0.848 | 1.02
AACCGG | 0.692 | 1.93
TGATCA | 1.08 | 0.939
CGTACC | 0.951 | 1.19
GTGGAA | 1.23 | 0.924
ACAGCA | 0.828 | 0.971
TCAACT | 1.2 | 1.27
GTTGCG | 0.8 | 1.03
TTAGCT | 1.82 | 1.22
CGGAAC | 0.685 | 1.61
CTGGGG | 0.784 | 0.726
GCCTAG | 1.21 | 0.871
TACAAA | 1.12 | 1.09
ACACCG | 0.795 | 1.07
AGATGA | 1.24 | 1.03
ACCTTG | 0.983 | 1.18
AGTTCT | 1.92 | 1.09
GTATAC | 0.951 | 1.26
GCACTA | 1.11 | 1.13
AAGCCT | 1.5 | 1.23
GGATGT | 0.824 | 1.89

Sequence | binding signal (HSF1) | binding signal (ELF2)
CAACGC | 0.803 | 1
CTATGC | 1.28 | 1.34
GCGTCA | 0.746 | 0.924
TTATTC |  | 1.37
TTGCGA |  | 1.05
TGATTC |  | 1.08
TCCAGT |  | 0.649
ATAATC |  | 1.07
CATAAT |  | 1.02
TTGGCA |  | 1.12
ACAAGA |  | 0.962
TTGTTA |  | 1.27
GCTCTA |  | 1.11
GTTCTG |  | 1.05
GTAAGC |  | 0.897
TATGCT |  | 1.25
CTATAG |  | 0.987
TGTCCT |  | 1.48
ATTTAG |  | 1.09
CTAGCC |  | 0.974
AACCTA |  | 1.05
TGACCC |  | 1.36
TTTCAC |  | 1.35
GGATCA |  | 0.773

Sequence | binding signal (HSF1) | binding signal (ELF2)
TACACA |  | 1.17
AGAATC |  | 0.953
CTAGAA |  | 1
TGTTTA |  | 1.12
CGTATA |  | 1.19
CTAGTA |  | 1.06
AGATCT |  | 0.895
TCCATT |  | 1.24
CCACAA |  | 1.12
ATGTTT |  | 1.41
AAACTA |  | 1.29
TCCGCT |  | 2.71
ATTCAT |  | 1.1
AACATT |  | 1.26
AGTATA |  | 1.02
TAGTTA |  | 1.12
AGAGAT |  | 0.883
CTCGGT |  | 1.03
CTAGAT |  | 1.07
TAGATT |  | 1.18
TCCTGT |  | 2.1
TACCTG |  | 1.11
GCGAAG |  | 0.856
TTAGCC |  | 0.956

4 entries from above, with each value named:
TGGCCG
  binding signal (HSF1): 0.884
  binding signal (ELF2): 1.01
CTGCGG
  binding signal (HSF1): 0.954
  binding signal (ELF2): 1.15
CTGATG
  binding signal (HSF1): 1.33
  binding signal (ELF2): 1.54
CCCCCC
  binding signal (HSF1): 0.897
  binding signal (ELF2): 1.03
